Consider one molecule from PMC10042772 (Targeted Oncology, 2023).

Each structure is given as a SMILES string.

This experiment relates to MDA-MB-453 cells. The experiment is described as follows: CellTiter-Glo 2.0 viability assay, 10 days. In kind it is cell-based. Conditions: Homo sapiens, MDA-MB-453, 240 h, read-out: IC50, proliferation (CTG). Background: Cellular ATP, detected with luciferase, serves as a proxy for viable cell number.

For the molecule `CNC(=O)c1ccc(N2C(=S)N(c3ccc(C#N)c(C(F)(F)F)c3)C(=O)C2(C)C)cc1F` [Enzalutamide, enzalutamide], the IC50 was determined as 11.7 µM.
